Measured values reported in publication PMC6827371.
These are yes or no findings as the source states them, for the method shown. Binding seen in cells or lysates may run through a third protein. Some binding calls cover weakened binding; strength is not graded here. Tags and fused reporters may be left off the sequences shown. One block for each molecule: values may come before it.

Protein sequences, listed by entry. Tags and fused reporters are not part of them.
UniProt Q9VHP0: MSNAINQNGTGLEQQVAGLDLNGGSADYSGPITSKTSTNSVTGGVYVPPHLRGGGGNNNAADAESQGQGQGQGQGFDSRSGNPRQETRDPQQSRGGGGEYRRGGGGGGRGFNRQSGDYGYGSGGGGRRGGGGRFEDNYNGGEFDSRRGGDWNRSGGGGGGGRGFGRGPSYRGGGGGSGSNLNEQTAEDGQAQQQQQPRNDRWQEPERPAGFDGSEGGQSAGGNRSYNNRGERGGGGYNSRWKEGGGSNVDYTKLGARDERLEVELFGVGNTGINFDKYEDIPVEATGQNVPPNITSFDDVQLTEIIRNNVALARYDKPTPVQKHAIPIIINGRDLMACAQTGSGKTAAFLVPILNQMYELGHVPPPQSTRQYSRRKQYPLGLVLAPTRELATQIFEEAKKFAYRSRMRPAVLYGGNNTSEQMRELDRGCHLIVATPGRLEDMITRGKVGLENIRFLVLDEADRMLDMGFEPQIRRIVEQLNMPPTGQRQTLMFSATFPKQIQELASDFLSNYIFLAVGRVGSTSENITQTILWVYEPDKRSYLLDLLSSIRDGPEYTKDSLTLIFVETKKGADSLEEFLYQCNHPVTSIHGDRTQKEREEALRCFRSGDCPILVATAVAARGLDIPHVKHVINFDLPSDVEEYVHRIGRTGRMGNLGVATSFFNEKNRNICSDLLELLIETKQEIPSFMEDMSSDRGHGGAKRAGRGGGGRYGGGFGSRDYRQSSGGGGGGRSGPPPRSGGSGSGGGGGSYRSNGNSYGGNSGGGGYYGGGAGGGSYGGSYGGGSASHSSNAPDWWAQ
UniProt P21187: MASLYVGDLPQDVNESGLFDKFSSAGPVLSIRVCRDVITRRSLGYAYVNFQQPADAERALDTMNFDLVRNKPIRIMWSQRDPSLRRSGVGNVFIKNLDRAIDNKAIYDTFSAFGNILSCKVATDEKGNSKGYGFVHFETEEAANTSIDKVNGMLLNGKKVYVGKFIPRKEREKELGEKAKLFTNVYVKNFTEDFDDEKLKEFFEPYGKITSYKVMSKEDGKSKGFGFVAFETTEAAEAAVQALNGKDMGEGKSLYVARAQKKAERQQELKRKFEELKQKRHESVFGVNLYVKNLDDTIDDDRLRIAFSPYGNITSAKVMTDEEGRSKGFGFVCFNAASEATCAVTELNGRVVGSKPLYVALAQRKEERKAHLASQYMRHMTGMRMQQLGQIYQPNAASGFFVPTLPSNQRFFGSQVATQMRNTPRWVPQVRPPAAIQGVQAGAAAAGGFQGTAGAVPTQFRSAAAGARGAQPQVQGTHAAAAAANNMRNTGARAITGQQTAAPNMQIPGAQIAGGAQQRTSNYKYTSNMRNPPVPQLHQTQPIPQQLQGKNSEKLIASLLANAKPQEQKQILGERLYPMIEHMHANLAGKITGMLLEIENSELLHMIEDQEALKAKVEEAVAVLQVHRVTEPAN
UniProt P19109: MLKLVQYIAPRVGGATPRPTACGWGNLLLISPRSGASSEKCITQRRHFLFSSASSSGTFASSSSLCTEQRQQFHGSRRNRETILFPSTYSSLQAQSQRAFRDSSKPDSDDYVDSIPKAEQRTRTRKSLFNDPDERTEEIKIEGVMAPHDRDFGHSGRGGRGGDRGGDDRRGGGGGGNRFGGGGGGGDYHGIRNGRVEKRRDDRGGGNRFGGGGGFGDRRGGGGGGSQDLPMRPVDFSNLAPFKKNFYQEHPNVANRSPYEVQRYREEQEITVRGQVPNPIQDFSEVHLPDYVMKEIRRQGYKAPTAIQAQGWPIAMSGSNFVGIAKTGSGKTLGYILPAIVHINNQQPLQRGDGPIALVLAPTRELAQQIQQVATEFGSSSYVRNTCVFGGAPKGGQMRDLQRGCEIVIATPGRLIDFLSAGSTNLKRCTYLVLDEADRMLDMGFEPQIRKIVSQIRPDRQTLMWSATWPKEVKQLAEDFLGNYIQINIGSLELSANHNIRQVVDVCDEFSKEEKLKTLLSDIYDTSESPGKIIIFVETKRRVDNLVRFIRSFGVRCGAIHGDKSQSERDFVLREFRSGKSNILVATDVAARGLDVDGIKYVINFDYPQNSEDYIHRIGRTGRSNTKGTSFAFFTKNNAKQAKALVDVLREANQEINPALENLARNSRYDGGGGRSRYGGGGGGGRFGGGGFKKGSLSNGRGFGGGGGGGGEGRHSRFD

Target: T1, GFP-Vas^DQAD (Drosophila melanogaster) (UniProt P09052)
T1 sequence: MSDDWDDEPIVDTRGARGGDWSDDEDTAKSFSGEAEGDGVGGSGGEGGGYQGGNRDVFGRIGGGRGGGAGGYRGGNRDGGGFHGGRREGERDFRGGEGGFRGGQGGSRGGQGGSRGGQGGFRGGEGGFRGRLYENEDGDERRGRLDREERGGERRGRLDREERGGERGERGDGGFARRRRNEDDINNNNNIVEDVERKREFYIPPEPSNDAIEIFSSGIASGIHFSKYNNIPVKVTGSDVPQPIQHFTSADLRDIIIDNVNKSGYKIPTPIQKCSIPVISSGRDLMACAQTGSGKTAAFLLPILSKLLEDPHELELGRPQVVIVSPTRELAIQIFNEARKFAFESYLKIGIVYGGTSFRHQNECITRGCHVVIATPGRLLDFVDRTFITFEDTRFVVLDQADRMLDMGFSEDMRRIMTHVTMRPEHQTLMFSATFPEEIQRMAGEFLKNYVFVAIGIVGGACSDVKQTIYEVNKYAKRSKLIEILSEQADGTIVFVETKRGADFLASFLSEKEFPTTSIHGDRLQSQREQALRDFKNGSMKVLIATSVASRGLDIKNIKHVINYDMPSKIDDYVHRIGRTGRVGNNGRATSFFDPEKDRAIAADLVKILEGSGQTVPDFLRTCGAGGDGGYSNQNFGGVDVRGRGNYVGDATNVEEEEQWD
Experiment: co-IP; GFP-trap immunoprecipitation of GFP and GFP-Vas^DQAD from 30 mg ovarian protein lysate, as for the proteomic experiment; co-immunoprecipitated proteins detected by Western blotting

- binding: binds
Molecule: Bel (from UniProt Q9VHP0 1-798)

- binding: binds
Molecule: PABP (from UniProt P21187 1-634)

- binding: binds
Molecule: Rm62 (from UniProt P19109 1-719)

- binding: binds
B1: Nop60B (protein, UniProt O44081 1-508)
chain: MADVEVRKEKKKKKIKEEPLDGDDIGTLQKQGNFQIKPSSKIAELDTSQWPLLLKNFDKLNIRSNHYTPLAHGSSPLNRDIKEYMKTGFINLDKPSNPSSHEVVAWIKKILKVEKTGHSGTLDPKVTGCLIVCIDRATRLVKSQQSAGKEYVAIFKLHGAVESVAKVRQGLEKLRGALFQRPPLISAVKRQLRVRTVYDSKLLDYDETRNMGVFWVSCEAGSYIRTMCVHLGLVLGVGGQMLELRRVRSGIQSERDGMVTMHDVLDAMWLYENHKDESMLRRVIKPLEGLLVNHKRIIMKDSSVNAVCYGAKITLPGVLRYEDGIEIDQEIVICTTKGEAICLAIALMTTATMASCDHGVVAKIKRVIMERDTYPRKWGLGPKASAKKALIAAGKLDKFGRPNENTPKEWLTGYVDYNAKKPAAQEVSPTNGSSEPSKRKLSTSSVEETAAAAVSEETPSKDKKKKKKKHKGDEEAPEAAEEEAEPVEKEKKKKKKKDKDRDRDEAQE

- binding: binds
B2: Armi (protein, UniProt Q6J5K9 1-1188)
chain: MFTYVSKFFTNPDRNREDILESLDRENSFLDQKLMEEKMDQQLKANPNEINGVLSNKIAELTHGLSEMDVSKESSCTARKGVITSLDGDRGVIDKDVLFETKVAEDIILDLHVGCVVEYLTFTTGEAMRVVKVKSILEHSWEDTSQKEIEKAVDNLKNEKPTFFNTETRSVLGLISQRLASSIDVETEYGQLTVELDNIEMNFIPTNGDRVRLECNIQLDDGFVDKQGEILEVTKLFPTRIQEGEKCIVERVYVHMVVLGPETYILKTDLPTGTDLHLGDIVLADLIECQYSKFTRRAIKITPLEKNFGATKLTQQSSMGSSGSGKAVTVTGVNRFITAELWQKESVSLKLTNNLNRTLRLESITVCNDSESQLSVVSPLESKEISSGSEITVTFEIHTQFLGEAIEKYVLNFDLLKVRRVFTVIVCKTKEEVAEAEKRMIAAEALMAPGRNSQERSRFYANQVWCNKVDVIPGQQIVTKRRFVALRLGCFEVPKELRQICLTSERRQEMIKAIEQHYSFLTEPLSIKTYMHRFRLLLHLEEIECFVNFRNYDRDRAHFLRDGEFLTLQIENLAERRPSLVIGDTLRVINPWSDPDSQTTKSYEGIIHKVLFDRILLKFHSSFQEKYNGEDYRLEFYFSRYSFRKQHHAISKIVGVMGEDFLFPSKVTKRENPQLDVYMKDDDMYLYDSKLEWYNQSLNSIQKRAVFNILRGEAENIPYVLFGPPGSGKTMTLIETLLQLVRNLPGARILVGTPSNSSADLVTKRLIDSKALLQGDFIRLVSYNQVEKDLIPPEIMSYCATSDVGAVGSCEDKMMVTESGLKLRCQAKFIGTHRITISTCTTLGNFLQLGFPAGHFTHVLFDEAGQCTEPETMVPIVMLTKKRSQVVLSGDPRQLQSIVTSRIASKMGFSISFLERLLERSPYRKDLQRFPESSGYNPLVLTKLLYNYRALPSIMSIYSRLFYDDELIPVLSEKDSRESRLLSKLRCVFESEKDIPQAHGTFFYGIIGENRQNNDSPSWFNPQEVREVFLMTIALYRANVTADQIGIITPYQKQVKMLRSMFIGTDVVMPKIGSVEEFQGQERDIILISTVRSSEEILRMDARFSLGFVRCSKRLNVAVSRARAMMIIFGNPHLLAVDECWRQLILFCVKNNAYFGCDLPQMVINQKDEVPVCLETFVPSLNTTDDLN
